Some of these results come from one statement about several compounds together. Some ranges recur; such a range may be that of the whole group of compounds.
Molecular target: HLA A0201 (Homo sapiens, UniProt P04439, D140Y/D185E/D98H/E176V/E277Q/G131W/G231S/I119V/I121R/I166T/I218V/L300P/L318F/N151K/N90K/P208A/P217A/Q86G/Q94H/R138H/R169H/T345S)
Assay: T2 stabilization assay: peptide dissociation from HLA A0201
Assay type: binding
Set-up: an increase in the level of surface HLA-A0201 recognizable by specific mAb such as BB7.2; endogenous in cells; host or cells: T2 (174xCEM.T2) human cell line
Details: T2 cells, after removal of unbound peptide, brefeldin A

Sequence	peptide/HLA-A0201 complexes stable over
YLFKQSSKV (listed as Homo sapiens) [p210E]	6 to 8 h
TLFKQSSKV (listed as Homo sapiens) [p210D]	6 to 8 h

Reference: patent publication US20060153861A1, “BCR-ABL imatinib resistance-associated peptides and methods of use thereof” (priority 2004, published 2006)
